This is an account of results in US20150128304A1.

Protein sequences, listed by entry. Tags and fused reporters are not part of them. Lines headed by an entry give the natural chain unless they say otherwise; changes in a name come on top.
UniProt P04386: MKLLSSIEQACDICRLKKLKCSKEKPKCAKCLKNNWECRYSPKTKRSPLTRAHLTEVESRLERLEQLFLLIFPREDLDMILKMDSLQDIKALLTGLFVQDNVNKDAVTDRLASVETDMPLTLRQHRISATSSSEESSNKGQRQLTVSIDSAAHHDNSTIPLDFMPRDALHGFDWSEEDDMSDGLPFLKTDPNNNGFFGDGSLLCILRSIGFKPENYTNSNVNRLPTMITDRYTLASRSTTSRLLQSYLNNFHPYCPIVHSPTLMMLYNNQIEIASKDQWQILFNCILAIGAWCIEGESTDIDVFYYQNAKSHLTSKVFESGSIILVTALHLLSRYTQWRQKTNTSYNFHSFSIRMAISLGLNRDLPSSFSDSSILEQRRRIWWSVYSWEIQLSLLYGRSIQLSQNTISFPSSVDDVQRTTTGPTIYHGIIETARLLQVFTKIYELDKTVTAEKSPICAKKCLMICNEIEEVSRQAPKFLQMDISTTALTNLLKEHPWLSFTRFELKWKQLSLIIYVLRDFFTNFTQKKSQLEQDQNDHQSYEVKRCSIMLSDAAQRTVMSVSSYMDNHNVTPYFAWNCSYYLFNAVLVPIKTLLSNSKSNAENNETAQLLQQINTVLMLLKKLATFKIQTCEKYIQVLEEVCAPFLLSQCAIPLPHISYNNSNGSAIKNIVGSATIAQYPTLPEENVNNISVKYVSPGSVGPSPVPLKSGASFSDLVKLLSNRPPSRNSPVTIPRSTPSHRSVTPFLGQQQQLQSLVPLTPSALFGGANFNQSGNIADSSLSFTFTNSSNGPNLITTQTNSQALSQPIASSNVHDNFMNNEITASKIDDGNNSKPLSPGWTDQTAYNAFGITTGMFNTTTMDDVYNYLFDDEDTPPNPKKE
UniProt O82132: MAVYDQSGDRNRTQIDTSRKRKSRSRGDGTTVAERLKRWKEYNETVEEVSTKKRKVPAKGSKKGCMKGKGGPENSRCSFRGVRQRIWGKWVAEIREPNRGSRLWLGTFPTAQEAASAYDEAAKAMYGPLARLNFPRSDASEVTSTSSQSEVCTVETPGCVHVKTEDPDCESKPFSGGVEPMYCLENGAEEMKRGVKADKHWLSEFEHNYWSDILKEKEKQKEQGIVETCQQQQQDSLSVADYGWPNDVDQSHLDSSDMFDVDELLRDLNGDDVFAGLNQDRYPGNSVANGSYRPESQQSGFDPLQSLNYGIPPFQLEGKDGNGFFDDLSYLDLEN
UniProt Q5W6R4: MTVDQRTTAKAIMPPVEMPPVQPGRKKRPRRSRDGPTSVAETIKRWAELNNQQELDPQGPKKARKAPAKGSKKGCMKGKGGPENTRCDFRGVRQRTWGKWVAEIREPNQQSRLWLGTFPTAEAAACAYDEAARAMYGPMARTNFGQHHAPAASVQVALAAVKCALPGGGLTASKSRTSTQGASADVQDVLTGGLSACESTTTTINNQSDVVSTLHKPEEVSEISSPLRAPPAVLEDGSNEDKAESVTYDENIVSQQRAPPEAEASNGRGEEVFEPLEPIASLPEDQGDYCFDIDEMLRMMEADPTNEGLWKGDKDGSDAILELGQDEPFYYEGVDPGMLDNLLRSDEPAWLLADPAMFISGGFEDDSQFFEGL

Results are given in words; binding and its absence hold for the method and conditions named. Some entries that bind do so weakly or less than the wild type. Sequences can lack the tags named with a protein.

Assay [1] deals with T1, DREB2A (1-205 a.a.), region excluding the C-terminal transcriptional activation domain, fused to the DNA-binding domain of pGBKT7 (yeast two-hybrid bait) (Arabidopsis thaliana) (UniProt P04386+O82132). Kind of assay: yeast two-hybrid, growth on QDO medium.
The target of assay [2] is T2, Oryza sativa OsDREB2B2 (1-146 a.a.) fused to the DNA-binding domain of pGBKT7 (yeast two-hybrid bait) (Oryza sativa) (UniProt P04386+Q5W6R4). As to the kind of experiment: yeast two-hybrid, growth on QDO medium.
The target in assay [3] is T1, DREB2A (1-205 a.a.), region excluding the C-terminal transcriptional activation domain, fused to the DNA-binding domain of pGBKT7 (yeast two-hybrid bait) (Arabidopsis thaliana). As to the kind of experiment: yeast two-hybrid in AH109, growth on QDO medium.
The target in assay [4] is T2, Oryza sativa OsDREB2B2 (1-146 a.a.) fused to the DNA-binding domain of pGBKT7 (yeast two-hybrid bait) (Oryza sativa). Kind of assay: yeast two-hybrid in AH109, growth on QDO medium.
Assay [5] has as its target Oryza sativa OsDREB2B2 full-length fused to a YFP fragment (BiFC construct in pBI221) (Oryza sativa) (UniProt Q5W6R4). Kind of assay: BiFC (split YFP), transient expression in Arabidopsis protoplasts.

B1: Arabidopsis thaliana NF-YC10 full-length fused to the activation domain of pGADT7 (yeast two-hybrid prey) (protein, not shown: large carriers)
chain: MVSSKKPKEKKARSDVVVNKASGRSKRSSGSRTKKTSNKVNIVKKKPEIYEISESSSSDSVEEAIRGDEAKKSNGVVSKRGNGKSVGIPTKTSKNREEDDGGAEDAKIKFPMNRIRRIMRSDNSAPQIMQDAVFLVNKATEMFIERFSEEAYDSSVKDKKKFIHYKHLSSVVSNDQRYEFLADSVPEKLKAEAALEEWERGMTDAG
For the molecule B1, the binding result in assay [1], in assay [2], in assay [3] and in assay [4] was “binds” throughout.

B2: Arabidopsis thaliana NF-YC10 full-length fused to a YFP fragment (BiFC construct in pBI221) (protein, not shown: large carriers)
chain: B1 chain
As to B2, the binding entry in assay [5] was “binds”.
